The list shows only some results of the screen, not a fair sample: it gathers tests that were run many times, whatever their T/C, doses with no T/C, and many T/C values between a quarter and a half above the control. Further doses and runs are listed elsewhere. T/C is the treated group as % of the vehicle group. Schedules are NCI's codes, read here as Q, the interval in days (D) or hours (H), X, the number of doses. Some entries hold several experiments; the values are given in rising order. Some T/C values carry the count of animals alive at the toxicity check (mostly the fifth day); without a count, all were alive then. Some doses have a count of surviving animals in place of a T/C: the source holds a T/C of zero for them, seemingly a mark for toxic or unscored doses. Survivors were counted at the toxicity check, usually on the fifth day, unless a day is given; later deaths do not show. For survival time, this PubChem deposit counts one and a half times the control or more as active, and values a quarter to a half above the control carry no call in these data; other NCI protocols may use other cut-offs.
Tested on: BDF1 mice, colon carcinoma 38 sc, T/C %
Test: NCI In Vivo Anticancer Drug Screen. Data for tumor model Colon Carcinoma 38 (subcutaneous) in B6D2F1 (BDF1) mice
How it was run: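 Mice with transplanted tumors are treated with compound or vehicle. Survival or tumor size is then measured in both groups. The ratio of treated to control gives the reported figure.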

In the case of `O=c1cc[nH]c(=O)o1`, the survivor count (T/C endpoint: median tumor weight (est.), dose: 42.0 mg/kg/injection, schedule: Q01DX009 (ip), vehicle: water, higher T/C = larger tumour) is reported as 5 of 10.

In the case of `CCOC(=O)CC(SP(=S)(OC)OC)C(=O)OCC` (centres undefined), the survivor count (T/C endpoint: median tumor weight (est.), dose: 800.0 mg/kg/injection, schedule: Q07DX002 (ip), vehicle: suspension in saline, higher T/C = larger tumour) is reported as 3 of 10 on day 20.

In the case of `O=C(Nc1ccc(N=C=S)cc1Cl)c1cc(Cl)cc(Cl)c1O`, the survivor count (T/C endpoint: median tumor weight (est.), dose: 100.0 mg/kg/injection, schedule: Q07DX002 (ip), vehicle: Klucel (hydroxypropylcellulose) (HPC), higher T/C = larger tumour) is reported as 5 of 10 on day 20, the survivor count (T/C endpoint: median tumor weight (est.), dose: 200.0 mg/kg/injection, schedule: Q07DX002 (ip), vehicle: Klucel (hydroxypropylcellulose) (HPC), higher T/C = larger tumour) is reported as 0 of 10 on day 20 and 1 of 10 on day 20 and the survivor count (T/C endpoint: median tumor weight (est.), dose: 400.0 mg/kg/injection, schedule: Q07DX002 (ip), vehicle: Klucel (hydroxypropylcellulose) (HPC), higher T/C = larger tumour) is reported as 0 of 10 on day 20.

With `OCC1OC(n2cnc3c(NO)ncnc32)C(O)C1O` (centres undefined) the T/C (T/C endpoint: median tumor weight (est.), dose: 100.0 mg/kg/injection, schedule: Q07DX002 (ip), vehicle: Klucel (hydroxypropylcellulose) (HPC), evaluated on day 20, higher T/C = larger tumour) was 125 and 126 % of control and the T/C (T/C endpoint: median tumor weight (est.), dose: 200.0 mg/kg/injection, schedule: Q07DX002 (ip), vehicle: Klucel (hydroxypropylcellulose) (HPC), evaluated on day 20, higher T/C = larger tumour) was 126 % of control [8 of 10 alive on day 20].

In the case of `C/C=C1\C[C@@H]2C(OC)Nc3cc(O)c(OC)cc3C(=O)N2C1` (some centres undefined), the T/C (T/C endpoint: median tumor weight (est.), dose: 0.06 mg/kg/injection, schedule: Q07DX002 (ip), vehicle: suspension in saline, evaluated on day 20, higher T/C = larger tumour) is reported as 129 % of control, the survivor count (T/C endpoint: median tumor weight (est.), dose: 2.0 mg/kg/injection, schedule: Q07DX002 (ip), vehicle: saline, higher T/C = larger tumour) is reported as 1 of 10 on day 20 and the survivor count (T/C endpoint: median tumor weight (est.), dose: 2.0 mg/kg/injection, schedule: Q07DX002 (ip), vehicle: suspension in saline, higher T/C = larger tumour) is reported as 0 of 10 on day 20.

`Cc1cn(C2CC3[O][Sn]([c]4ccccc4)([c]4ccccc4)[O]CC3O2)c(=O)[nH]c1=O` (centres undefined) was tested, and the survivor count (T/C endpoint: median tumor weight (est.), dose: 400.0 mg/kg/injection, schedule: Q07DX002 (ip), vehicle: saline, higher T/C = larger tumour) was 3 of 10 on day 20.

For `Cc1ccc(C(=O)[O][Hg][CH2]C2COC([CH2][Hg][O]C(=O)c3ccc(C)cc3)CO2)cc1` (centres undefined), the T/C (T/C endpoint: median tumor weight (est.), dose: 25.0 mg/kg/injection, schedule: Q07DX002 (ip), vehicle: Klucel (hydroxypropylcellulose) (HPC), evaluated on day 20, higher T/C = larger tumour) was 144 % of control.

`COc1cc2cc[n+](C)c(Cc3ccccc3)c2cc1OC` was tested, and the T/C (T/C endpoint: median tumor weight (est.), dose: 6.25 mg/kg/injection, schedule: Q07DX003 (ip), vehicle: saline, evaluated on day 20, higher T/C = larger tumour) was 131 % of control.

`ClCCCCCCCCCCc1ccccc1` was tested, and the T/C (T/C endpoint: median tumor weight (est.), dose: 50.0 mg/kg/injection, schedule: Q07DX002 (ip), vehicle: Klucel (hydroxypropylcellulose) (HPC), evaluated on day 20, higher T/C = larger tumour) was 129 % of control.

For `C[PH+](C)C.C[PH+](C)C.[Au]`, the survivor count (T/C endpoint: median tumor weight (est.), dose: 20.0 mg/kg/injection, schedule: Q07DX002 (ip), vehicle: saline, higher T/C = larger tumour) was 6 of 10 on day 20 and the survivor count (T/C endpoint: median tumor weight (est.), dose: 40.0 mg/kg/injection, schedule: Q07DX002 (ip), vehicle: saline, higher T/C = larger tumour) was 0 of 10 on day 20.

For `O=C(O)C1CC(c2ccccc2)=NN1c1ccccc1` (centres undefined), the T/C (T/C endpoint: median tumor weight (est.), dose: 100.0 mg/kg/injection, schedule: Q07DX002 (ip), vehicle: water, evaluated on day 20, higher T/C = larger tumour) was 141 % of control, the survivor count (T/C endpoint: median tumor weight (est.), dose: 400.0 mg/kg/injection, schedule: Q07DX002 (ip), vehicle: water, higher T/C = larger tumour) was 2 of 10 on day 20 and 4 of 10 on day 20 and the survivor count (T/C endpoint: median tumor weight (est.), dose: 800.0 mg/kg/injection, schedule: Q07DX002 (ip), vehicle: water, higher T/C = larger tumour) was 0 of 10 on day 20.

With `CC(=O)C1(O)Cc2c(O)c3c(c(O)c2C(OC2CC(N)C(O)C(C)O2)C1)C(=O)c1ccccc1C3=O` (centres undefined) the T/C (T/C endpoint: median survival time, dose: 2.3 mg/kg/injection, schedule: Q07DX002 (iv), vehicle: saline, higher T/C = longer survival) was 127 % of control, the T/C (T/C endpoint: median survival time, dose: 3.7 mg/kg/injection, schedule: Q07DX002 (iv), vehicle: saline, higher T/C = longer survival) was 147 % of control [9 of 10 alive on day 81] and the survivor count (T/C endpoint: median survival time, dose: 6.0 mg/kg/injection, schedule: Q07DX002 (iv), vehicle: saline, higher T/C = longer survival) was 1 of 10 on day 81. The survivor count (T/C endpoint: median tumor weight (est.), dose: 1.5 mg/kg/injection, schedule: Q07DX002 (ip), vehicle: saline, higher T/C = larger tumour) was 1 of 10 on day 20, the survivor count (T/C endpoint: median tumor weight (est.), dose: 3.0 mg/kg/injection, schedule: Q07DX002 (ip), vehicle: saline, higher T/C = larger tumour) was 0 of 10 on day 20 and the survivor count (T/C endpoint: median tumor weight (est.), dose: 6.0 mg/kg/injection, schedule: Q07DX002 (ip), vehicle: saline, higher T/C = larger tumour) was 0 of 10 on day 20. The survivor count (T/C endpoint: median tumor weight (est.), dose: 12.0 mg/kg/injection, schedule: Q07DX002 (ip), vehicle: saline, higher T/C = larger tumour) was 0 of 10 on day 20.

`CN1CCN(CCCN2c3ccccc3Sc3ccc(C(F)(F)F)cc32)CC1` was tested, and the T/C (T/C endpoint: median tumor weight (est.), dose: 12.5 mg/kg/injection, schedule: Q07DX002 (ip), vehicle: saline with Tween-80, evaluated on day 20, higher T/C = larger tumour) was 141 % of control, the survivor count (T/C endpoint: median tumor weight (est.), dose: 100.0 mg/kg/injection, schedule: Q07DX002 (ip), vehicle: saline with Tween-80, higher T/C = larger tumour) was 6 of 10 on day 20 and the survivor count (T/C endpoint: median tumor weight (est.), dose: 200.0 mg/kg/injection, schedule: Q07DX002 (ip), vehicle: saline with Tween-80, higher T/C = larger tumour) was 0 of 10 on day 20.
